# In PubChem BioAssay AID1487 (National Center for Advancing Translational Sciences (NCATS), 2009):
# Some of the results follow. Shown are side measurements of this screen, not its main read-out; they come without a call. Compounds called inactive in the main read-out are mostly missing here. The note in brackets gives the kind of curve behind each potency; many fits are weak.
# Test: qHTS Assay for Modulators of Lamin A Splicing
# Conditions: HeLa LMNA splicing GFP/RFP minigene ratio, 48 h
# In short: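 S3 HeLa stable clones carrying a lamin A-EGFP splicing minigene plus DsRed2 were seeded at 600 cells/well in Opti-MEM with 2% FBS, pin-dosed and incubated 48 h at 37°C. Acumen cytometry (488 nm) gave the GFP/RFP total-intensity ratio.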
# [1] = measured here: RFP viability control channel
# [2] = measured here: GFP splicing reporter channel
Compound,AC50 [1],AC50 [2]
CC(=O)OC[C@@]1(O)C[C@]23CCC4c5ccoc5CC[C@@]4(C)C2CCC1C3 (some centres not stated),"17.8 µM [rising, single point]",–
COc1ccc(S(=O)(=O)N(C(=O)C(C)C)c2ccc3oc(=O)sc3c2)cc1,"15.8 µM [rising, single point]",–
CCn1c(/C=C/N(C(C)=O)c2ccccc2)[n+](CC)c2ccc(Cl)cc21,"10 µM [rising, partial curve, poor fit]",–
O=C(Nc1nc2c(F)cccc2s1)c1ccc(S(=O)(=O)N2CCOCC2)cc1,–,"1 µM [rising, full curve, poor fit]"
O=C(N/N=C/c1ccc(N2CCCCC2)o1)c1ccccc1,"31.6 µM [rising, single point]",–
CCc1cccc(CC)c1NC(=O)CN(CC(=O)O)CC(=O)O,–,"0.0891 µM [falling, full curve, poor fit]"
CCCn1c(=O)c2ccccc2n2c(SCc3nc4ccccc4s3)nnc12,–,"11.2 µM [rising, partial curve, poor fit]"
CCC(C)Sc1nnc(CSc2nc(C)cc(C)n2)n1C (configuration not stated),"2 µM [falling, partial curve, poor fit]",–
COCCn1c(SCC(=O)Nc2cc(Cl)ccc2OC)nc2c(c1=O)SC(C)C2 (configuration not stated),"25.1 µM [rising, single point]",–
Cc1cccc(NC(=O)CN2C(=O)S/C(=C\c3ccccn3)C2=O)c1,–,"35.5 µM [rising, single point]"
O=C(COc1ccccc1Br)c1ccc(O)cc1O,"22.4 µM [rising, single point]","0.501 µM [rising, single point]"
S=C(NCCc1ccccc1)Nc1ccc(Nc2ccccc2)cc1,"3.16 µM [falling, partial curve]",–
Cc1ccccc1C(=O)c1c[nH]c(C(=O)NCCCn2ccnc2)c1,–,"12.6 µM [falling, partial curve]"
O=C(COC(=O)C1(c2ccccc2F)CCCC1)NCc1ccc2c(c1)OCO2,"35.5 µM [rising, single point]",–
CN(CCc1cnn(C)c1)C(=O)CCc1nnc(CCCc2ccccc2)o1,–,"0.1 µM [falling, full curve]"
COc1ccc(CCNC(=S)Nc2cccc3ccccc23)cc1,"25.1 µM [rising, single point]","22.4 µM [rising, single point]"
c1ccc(Nc2nc(N3CCOCC3)c3ccccc3n2)cc1,"11.2 µM [rising, partial curve]",–
O=C1NC(c2ccccc2)=C(c2nc3ccccc3s2)C(c2ccc(F)cc2)N1 (configuration not stated),"0.0316 µM [falling, single point]","0.0316 µM [falling, single point]"

# Reprinted from the entries so far (two entries):
Compound,AC50 [1],AC50 [2]
O=C(COc1ccccc1Br)c1ccc(O)cc1O,"22.4 µM [rising, single point]","0.501 µM [rising, single point]"
S=C(NCCc1ccccc1)Nc1ccc(Nc2ccccc2)cc1,"3.16 µM [falling, partial curve]",–

# The results go on:

Compound,AC50 [1],AC50 [2]
CCOC(=O)c1ccc(CN(Cc2ccc(C)cc2)S(=O)(=O)c2ccc(F)c(C(=O)Nc3ccc(C)c(F)c3)c2)cc1,"2 µM [falling, partial curve]",–
COc1ccccc1C1(CCNS(=O)(=O)c2ccc(C)cc2)CCOC(C(C)C)C1 (configuration not stated),"17.8 µM [rising, single point]","12.6 µM [rising, single point]"
CC1(C)CC2C1CC[C@]1(C)CCC3C(C(=O)O)CC(=O)O[C@]32C1 (some centres not stated),"35.5 µM [rising, single point]","14.1 µM [rising, partial curve]"
c1ccc(-n2nnnc2CN2CCOCC2)cc1,"0.891 µM [rising, full curve]",–
CC(NC(=O)C(=O)NN=C1CCC(C(C)(C)C)CC1)c1ccccc1 (configuration not stated),–,"4.47 µM [falling, single point]"
O=C(NCC(c1ccc2c(c1)OCO2)N1CCN(c2ccccc2)CC1)C(=O)Nc1ccc(F)cc1 (configuration not stated),"0.2 µM [falling, full curve, poor fit]",–
OC1CCCN(C(=S)Nc2ccc(SC(F)F)cc2)C1 (configuration not stated),"15.8 µM [rising, single point]","10 µM [rising, single point]"
Cc1onc(-c2ccccc2)c1C(=O)Nc1ccc(S(=O)(=O)N2CCCCC2)cc1,"35.5 µM [rising, single point]",–
CC(O)CNc1nc2c(c(=O)n(C)c(=O)n2C)n1Cc1cccc(Br)c1 (configuration not stated),"7.08 µM [rising, partial curve]",–
OCCN1CCN(C(=S)Nc2ccc(SC(F)F)cc2)CC1,"31.6 µM [falling, partial curve]","35.5 µM [falling, single point]"
CN(C)S(=O)(=O)c1cccc(C(=O)NC(=S)N(CCC#N)Cc2cccnc2)c1,"0.0112 µM [falling, full curve, poor fit]","35.5 µM [rising, single point]"
COC(=O)c1sccc1S(=O)(=O)N(CC(=O)NCc1ccc(C)cc1)c1ccccc1,"0.0141 µM [falling, full curve, poor fit]","2.82 µM [falling, partial curve, poor fit]"
CCCCC(=O)Nc1cccc(-c2cn3ccsc3n2)c1,"7.94 µM [rising, partial curve]","8.91 µM [rising, partial curve, poor fit]"
Cc1ccc(S(=O)(=O)NCC(=O)N/N=C/c2ccc(Cl)cc2Cl)cc1,"12.6 µM [rising, partial curve, poor fit]",–
Cc1nn(C)c(C)c1CN(C)S(=O)(=O)c1ccc2ccccc2c1,"0.562 µM [rising, full curve]","0.891 µM [rising, partial curve]"
CS/C(=C\[N+](=O)[O-])Nc1ccc(OC(F)(F)F)cc1,"0.00794 µM [falling, full curve, poor fit]",–
CCOC(=O)N1CCN(S(=O)(=O)c2ccc(F)c(C(=O)Nc3ccc(C(C)C)cc3)c2)CC1,"15.8 µM [rising, single point]",–
COC(=O)CCS(=O)(=O)c1nc(-c2ccccc2)cc(C(F)(F)F)n1,"12.6 µM [rising, partial curve]",–
